Results reported in PMC7804203, “Targeting adaptor protein SLP76 of RAGE as a therapeutic approach for lethal sepsis” (Nature Communications, 2021).
These are yes or no findings as the source states them, for the method shown. Binding seen in cells or lysates may run through a third protein. Some binding calls cover weakened binding; strength is not graded here. For some assays here: Sequences can lack the tags named with a protein. One block for each molecule: values may come before it.

Protein sequences, listed by entry. Tags and fused reporters are not part of them. Residues count along the entry.
UniProt Q15109, residues 23-404: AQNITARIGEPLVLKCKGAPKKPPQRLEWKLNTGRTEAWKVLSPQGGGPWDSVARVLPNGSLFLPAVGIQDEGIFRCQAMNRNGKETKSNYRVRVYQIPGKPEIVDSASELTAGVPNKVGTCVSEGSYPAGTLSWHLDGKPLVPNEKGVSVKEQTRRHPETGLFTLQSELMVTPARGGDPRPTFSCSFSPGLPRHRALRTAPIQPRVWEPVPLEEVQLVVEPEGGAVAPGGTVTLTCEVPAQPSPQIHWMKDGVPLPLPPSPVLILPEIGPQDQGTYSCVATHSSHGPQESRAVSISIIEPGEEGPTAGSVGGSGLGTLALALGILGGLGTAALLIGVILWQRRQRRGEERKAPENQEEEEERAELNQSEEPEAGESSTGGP
UniProt Q62151, residues 23-402: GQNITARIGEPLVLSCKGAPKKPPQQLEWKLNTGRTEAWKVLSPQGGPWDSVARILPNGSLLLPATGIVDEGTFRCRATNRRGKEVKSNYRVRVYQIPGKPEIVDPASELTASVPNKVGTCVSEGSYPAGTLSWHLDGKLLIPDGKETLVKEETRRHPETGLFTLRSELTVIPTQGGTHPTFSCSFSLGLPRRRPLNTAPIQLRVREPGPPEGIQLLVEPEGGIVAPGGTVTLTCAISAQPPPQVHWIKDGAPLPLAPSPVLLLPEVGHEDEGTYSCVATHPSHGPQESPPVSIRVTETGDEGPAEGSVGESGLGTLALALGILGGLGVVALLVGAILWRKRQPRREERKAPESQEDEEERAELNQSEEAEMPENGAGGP

How the values were obtained:
[1] = molecular target: T1, Flag-tagged full-length SLP76 (UniProt Q13094); assay: co-IP; HEK293 cotransfected with HA-RAGE and Flag-SLP76; treated with different doses of AGEs; 500 µg lysate with anti-FLAG M2 beads overnight at 4 °C; blot for HA (reverse immunoprecipitation)
T1 sequence: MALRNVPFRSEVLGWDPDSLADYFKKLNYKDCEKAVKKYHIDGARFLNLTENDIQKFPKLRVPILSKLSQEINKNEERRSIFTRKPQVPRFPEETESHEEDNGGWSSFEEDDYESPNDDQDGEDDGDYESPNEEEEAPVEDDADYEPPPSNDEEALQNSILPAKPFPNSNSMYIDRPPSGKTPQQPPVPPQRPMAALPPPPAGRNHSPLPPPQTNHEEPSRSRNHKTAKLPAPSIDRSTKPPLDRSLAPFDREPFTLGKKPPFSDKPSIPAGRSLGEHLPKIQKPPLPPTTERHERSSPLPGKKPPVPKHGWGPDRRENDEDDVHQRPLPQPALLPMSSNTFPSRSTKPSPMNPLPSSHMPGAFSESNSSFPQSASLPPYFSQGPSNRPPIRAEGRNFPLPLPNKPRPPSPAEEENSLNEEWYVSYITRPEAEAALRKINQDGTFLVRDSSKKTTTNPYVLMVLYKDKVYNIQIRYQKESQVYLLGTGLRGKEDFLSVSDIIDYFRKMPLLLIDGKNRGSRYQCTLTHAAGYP

[2] = molecular target: HA-tagged full-length RAGE (UniProt Q15109); assay: co-IP; HEK293 cotransfected with HA-RAGE (or mutants) and Flag-SLP76 (or mutants); treated with AGEs at different doses and times (100 μg/ml, 15 min in the mapping) or untreated; 500 µg lysate with anti-HA affinity gel overnight at 4 °C; blot for Flag
[3] = molecular target: ECFP-tagged RAGE (UniProt Q15109); assay: FRET or BRET; live HEK293 cells cotransfected with pECFP-RAGE and pEYFP-SLP76 or pEYFP-SLP76(ΔSAM), 36 h after transfection; sensitised emission, Net FRET
[4] = molecular target: endogenous RAGE of RAW264.7 cells (mouse (endogenous in RAW264.7)) (UniProt Q62151); assay: co-IP; endogenous proteins of RAW264.7 cells, AGEs (100 μg/ml) for 15 min or untreated; 500 µg lysate with 1 µg anti-RAGE antibody and protein G-Sepharose overnight at 4 °C; blot for SLP76

- binding [1]: binds
Molecule: HA-tagged full-length RAGE (from UniProt Q15109 23-404) (receptor)

- binding [2]: binds
B1: Flag-tagged SLP76 Y113A (protein, UniProt Q13094 1-533)
chain: MALRNVPFRSEVLGWDPDSLADYFKKLNYKDCEKAVKKYHIDGARFLNLTENDIQKFPKLRVPILSKLSQEINKNEERRSIFTRKPQVPRFPEETESHEEDNGGWSSFEEDDAESPNDDQDGEDDGDYESPNEEEEAPVEDDADYEPPPSNDEEALQNSILPAKPFPNSNSMYIDRPPSGKTPQQPPVPPQRPMAALPPPPAGRNHSPLPPPQTNHEEPSRSRNHKTAKLPAPSIDRSTKPPLDRSLAPFDREPFTLGKKPPFSDKPSIPAGRSLGEHLPKIQKPPLPPTTERHERSSPLPGKKPPVPKHGWGPDRRENDEDDVHQRPLPQPALLPMSSNTFPSRSTKPSPMNPLPSSHMPGAFSESNSSFPQSASLPPYFSQGPSNRPPIRAEGRNFPLPLPNKPRPPSPAEEENSLNEEWYVSYITRPEAEAALRKINQDGTFLVRDSSKKTTTNPYVLMVLYKDKVYNIQIRYQKESQVYLLGTGLRGKEDFLSVSDIIDYFRKMPLLLIDGKNRGSRYQCTLTHAAGYP

- binding [2]: binds
B2: Flag-tagged full-length SLP76 (protein, UniProt Q13094 1-533)
chain: MALRNVPFRSEVLGWDPDSLADYFKKLNYKDCEKAVKKYHIDGARFLNLTENDIQKFPKLRVPILSKLSQEINKNEERRSIFTRKPQVPRFPEETESHEEDNGGWSSFEEDDYESPNDDQDGEDDGDYESPNEEEEAPVEDDADYEPPPSNDEEALQNSILPAKPFPNSNSMYIDRPPSGKTPQQPPVPPQRPMAALPPPPAGRNHSPLPPPQTNHEEPSRSRNHKTAKLPAPSIDRSTKPPLDRSLAPFDREPFTLGKKPPFSDKPSIPAGRSLGEHLPKIQKPPLPPTTERHERSSPLPGKKPPVPKHGWGPDRRENDEDDVHQRPLPQPALLPMSSNTFPSRSTKPSPMNPLPSSHMPGAFSESNSSFPQSASLPPYFSQGPSNRPPIRAEGRNFPLPLPNKPRPPSPAEEENSLNEEWYVSYITRPEAEAALRKINQDGTFLVRDSSKKTTTNPYVLMVLYKDKVYNIQIRYQKESQVYLLGTGLRGKEDFLSVSDIIDYFRKMPLLLIDGKNRGSRYQCTLTHAAGYP

B3: EYFP-tagged SLP76 (protein, UniProt Q13094 1-533)
chain: MALRNVPFRSEVLGWDPDSLADYFKKLNYKDCEKAVKKYHIDGARFLNLTENDIQKFPKLRVPILSKLSQEINKNEERRSIFTRKPQVPRFPEETESHEEDNGGWSSFEEDDYESPNDDQDGEDDGDYESPNEEEEAPVEDDADYEPPPSNDEEALQNSILPAKPFPNSNSMYIDRPPSGKTPQQPPVPPQRPMAALPPPPAGRNHSPLPPPQTNHEEPSRSRNHKTAKLPAPSIDRSTKPPLDRSLAPFDREPFTLGKKPPFSDKPSIPAGRSLGEHLPKIQKPPLPPTTERHERSSPLPGKKPPVPKHGWGPDRRENDEDDVHQRPLPQPALLPMSSNTFPSRSTKPSPMNPLPSSHMPGAFSESNSSFPQSASLPPYFSQGPSNRPPIRAEGRNFPLPLPNKPRPPSPAEEENSLNEEWYVSYITRPEAEAALRKINQDGTFLVRDSSKKTTTNPYVLMVLYKDKVYNIQIRYQKESQVYLLGTGLRGKEDFLSVSDIIDYFRKMPLLLIDGKNRGSRYQCTLTHAAGYP
- binding [3]: binds

- binding [4]: binds
B4: endogenous SLP76 of RAW264.7 cells (protein, UniProt Q60787 1-533)
chain: MALKNVPFRSEVLAWNSDNLADYFRKLNYRDCEKAVKKYHIDGARFLNLTENDIQKFPKLRMPLLSKLSQDINKNEERRSIFTRKPQIPRFLEETESHEEDDGGWSSFEDDYESPNDDDPDGEDDGDYESPNEEEQALVDDAADYEPPPSNNEEALQSSILPPNSFHNTNSMYIDRPPTGKVSQQPPVPPLRPKPALPPLPTGRNHSPLSPPHPNHEEPSRSGNNKTAKLPAPSIDRSTKPPLDRSLAPLDREPFILGKKPPFSDKPSAPLGREHLPKIQKPPLPPAMDRHERNERLGPVTTRKPPVPRHGRGPDRRENDEDDVHQRPLPQPSLPSMSSNTFPSRSVQPSSKNTFPLAHMPGAFSESNIGFQQSASLPPYFSQGPGNRPPLRSEGRNLPLPVPNRPQPPSPGEEETPLDEEWYVSYITRPEAEAALRKINQDGTFLVRDSSKKTANNPYVLMVLYKDKVYNIQIRYQEESQVYLLGTGLRGKEDFLSVSDIIDYFRKMPLLLIDGKNRGSRYQCTLTHAAGCL
